No constants are given. Whether binding was seen depends on the method and setting. Binding seen in cells or lysates may run through a third protein. Here binding means that the protein was enriched with, or labelled near, the bait; the list need not be complete. Sequences can lack the tags named with a protein.
T1: ZZ-tagged Plk4 CPB (581–884) (UniProt O00444)
T1 sequence: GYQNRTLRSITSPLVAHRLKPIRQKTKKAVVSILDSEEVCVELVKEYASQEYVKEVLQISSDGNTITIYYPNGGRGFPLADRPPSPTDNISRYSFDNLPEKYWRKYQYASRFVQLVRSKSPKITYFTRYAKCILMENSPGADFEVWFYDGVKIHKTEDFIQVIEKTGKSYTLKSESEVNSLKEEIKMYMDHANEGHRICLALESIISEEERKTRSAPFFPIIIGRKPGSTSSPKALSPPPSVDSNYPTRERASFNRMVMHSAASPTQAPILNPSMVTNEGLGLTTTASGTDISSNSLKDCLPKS

T2: FLAG-tagged Plk4 CTD (581–970) (UniProt O00444)
T2 sequence: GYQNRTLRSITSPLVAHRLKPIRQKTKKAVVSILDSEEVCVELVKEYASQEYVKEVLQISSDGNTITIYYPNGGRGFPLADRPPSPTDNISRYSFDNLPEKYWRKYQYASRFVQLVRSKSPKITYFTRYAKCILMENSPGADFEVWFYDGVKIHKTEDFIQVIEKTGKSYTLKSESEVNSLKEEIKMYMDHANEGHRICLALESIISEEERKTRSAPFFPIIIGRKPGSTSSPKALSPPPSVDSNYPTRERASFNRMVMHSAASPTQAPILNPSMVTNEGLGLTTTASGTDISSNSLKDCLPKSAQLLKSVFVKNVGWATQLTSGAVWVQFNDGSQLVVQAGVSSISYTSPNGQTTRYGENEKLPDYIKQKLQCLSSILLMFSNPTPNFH

B1: Cep57 (endogenous, HEK293T) (protein, UniProt Q86XR8 1-500)
chain: MAAASVSAASGSHLSNSFAEPSRSNGSMVRHSSSPYVVYPSDKPFLNSDLRRSPSKPTLAYPESNSRAIFSALKNLQDKIRRLELERIQAEESVKTLSRETIEYKKVLDEQIQERENSKNEESKHNQELTSQLLAAENKCNLLEKQLEYMRNMIKHAEMERTSVLEKQVSLERERQHDQTHVQSQLEKLDLLEQEYNKLTTMQALAEKKMQELEAKLHEEEQERKRMQAKAAELQTGLETNRLIFEDKATPCVPNARRIKKKKSKPPEKKSSRNYFGAQPHYRLCLGDMPFVAGKSTSPSHAVVANVQLVLHLMKQHSKALCNDRVINSIPLAKQVSSRGGKSKKLSVTPPSSNGINEELSEVLQTLQDEFGQMSFDHQQLAKLIQESPTVELKDKLECELEALVGRMEAKANQITKVRKYQAQLEKQKLEKQKKELKATKKTLDEERNSSSRSGITGTTNKKDFMKLRPGEKRRKNLQLLKDMQSIQNSLQSSSLCWDY
B2: Cep135 (endogenous, HEK293T) (protein, UniProt Q66GS9 1-1140)
chain: MTTAVERKYINIRKRLDQLGYRQTLTVECLPLVEKLFSDLVHTTESLRQSKLSAVKAEKESANFDFVLEPYKLENARLSRENNELYLELMKLREHSDQHVKELKTSLKKCARETADLKFLNNQYAHKLKLLEKESKAKNERIQQLQEKNLHAVVQTPGGKKRSIAFRRQRMQIDEPVPPSEVSSYPVPQPDDPYIADLLQVADNRIQELQQEVHQLQEKLAMMESGVRDYSKQIELREREIERLSVALDGGRSPDVLSLESRNKTNEKLIAHLNIQVDFLQQANKDLEKRIRELMETKETVTSEVVNLSNKNEKLCQELTEIDQLAQQLERHKEEVLETADKELGEAKKEIKRKLSEMQDLEETMAKLQLELNLCQKEKERLSDELLVKSDLETVVHQLEQEKQRLSKKVESFAVTERQLTLEVERMRLEHGIKRRDRSPSRLDTFLKGIEEERDYYKKELERLQHIIQRRSCSTSYSAREKSSIFRTPEKGDYNSEIHQITRERDELQRMLERFEKYMEDIQSNVKLLTAERDKLSVLYNEAQEELSALRKESTQTTAPHNIVSLMEKEKELALSDLRRIMAEKEALREKLEHIEEVSLFGKSELEKTIEHLTCVNHQLESEKYELKSKVLIMKETIESLENKLKVQAQKFSHVAGDSSHQKTEVNSLRIVNEQLQRSVDDYQHRLSIKRGELESAQAQIKILEEKIDELNLKMTSQDEEAHVMKKTIGVIDKEKDFLQETVDEKTEKIANLQENLANKEKAVAQMKIMISECESSVNQLKETLVNRDREINSLRRQLDAAHKELDEVGRSREIAFKENRRLQDDLATMARENQEISLELEAAVQEKEEMKSRVHKYITEVSRWESLMAAKEKENQDLLDRFQMLHNRAEDWEVKAHQAEGESSSVRLELLSIDTERRHLRERVELLEKEIQEHINAHHAYESQISSMAKAMSRLEEELRHQEDEKATVLNDLSSLRELCIKLDSGKDIMTQQLNSKNLEFERVVVELENVKSESDLLKKQLSNERHTVKNLESLLATNRDKEFHSHLTSHEKDTEIQLLKEKLTLSESKLTSQSRENTMLRAKVAQLQTDYDALKRQISTERYERERAIQEMRRHGLATPPLSSTLRSPSHSPEHRNV
B3: Cep63 (endogenous, HEK293T) (protein, UniProt Q96MT8 1-703)
chain: MEALLEGIQNRGHGGGFLTSCEAELQELMKQIDIMVAHKKSEWEGRTHALETCLKIREQELKSLRSQLDVTHKEVGMLHQQVEEHEKIKQEMTMEYKQELKKLHEELCILKRSYEKLQKKQMREFRGNTKNHREDRSEIERLTAKIEEFRQKSLDWEKQRLIYQQQVSSLEAQRKALAEQSEIIQAQLVNRKQKLESVELSSQSEIQHLSSKLERANDTICANELEIERLTMRVNDLVGTSMTVLQEQQQKEEKLRESEKLLEALQEEKRELKAALQSQENLIHEARIQKEKLQEKVKATNTQHAVEAIRPREESLAEKKYTSQGQGDLDSVLSQLNFTHTSEDLLQAEVTCLEGSLESVSATCKQLSQELMEKYEELKRMEAHNNEYKAEIKKLKEQILQGEQSYSSALEGMKMEISHLTQELHQRDITIASTKGSSSDMEKRLRAEMQKAEDKAVEHKEILDQLESLKLENRHLSEMVMKLELGLHEAKEISLADLQENYIEALNKLVSENQQLQKDLMNTKSQLEISTQMCKKQNDRIFKPTHSRTTEFKNTEFKPTHGQHRHDGIKTEHYKTDLHSPRGQASDSINPMSRVLSPLSPQISPCSSTRSLTSYSLCKTHSLPSALDTNEANFSDTMSESMNDQEEFISSCSLPVSPLGSIATRFLEEEELRSHHILERLDAHIEELKRESEKTVRQFTALK

Tests used:
[1] = molecular target: T1, ZZ-tagged Plk4 CPB (581–884); experiment: affinity purification with mass spectrometry; Expt. 1: lysates of HEK293T cells transfected with ZZ-TEV-Plk4 CPB(581–884) on a human IgG column, eluted after AcTEV digestion with TBSN buffer; SDS-PAGE bands, trypsin, nanoLC-tandem MS
[2] = molecular target: T2, FLAG-tagged Plk4 CTD (581–970); experiment: affinity purification with mass spectrometry

Binder	binding [1]	binding [2]
B1	binds	binds
B2	binds	binds
B3	binds	binds
